# PubChem BioAssay AID720505 | Drosophila RNAi Screening Center, 2013
# Test: 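Genes needed for store-operated calcium entry in fly cells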 (primary screen)
# System: Drosophila S2R+ cells
# Reagent: long dsRNA against Drosophila genes
# Treatment: thapsigargin (2 µM) in calcium-free buffer to empty internal stores, then 2 mM calcium added back
# Measured: 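Stores emptied by 2 µM thapsigargin without calcium, then 2 mM calcium re-added; fluo-4 fluorescence followed by FLIPR in 384-well plates, per-well averaged endpoint, raw; two screen passes, some wells retested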
# Scale: calcium signal: higher = more calcium entry after store depletion
# Rule for the call: 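About 1500 genes called as lowering calcium entry, by varying amounts, judged against per-plate control wells with STIM1 as positive and Rho1 as negative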
# Meaning of the calls: active = called as lowering calcium entry; inactive = not called
# The deposit covers about 20,000 reagents; below is a random part of those with a known target gene and a result. Over the whole deposit, about 2,100 (10%) got an active call. 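Raw plate signals without normalisation; calls rest on control-based scores that were not deposited; replicate 2 separates called from uncalled poorly.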 The numbers tell different reagents against one gene apart. Names joined by + are all predicted targets of the reagent. The record does not give: the amount of reagent, the time to read-out.
target,reagent,"calcium signal, replicate 1","calcium signal, replicate 2",Outcome
scra,1,120,84.5,inactive
ORY,1,117,110,inactive
MRG15,1,90.3,155,inactive
barc,1,64.3,100,active
CG43777 + CG43776 + CG43775,1,111,142,inactive
CG42238,1,105,132,inactive
Unc-76,1,116,132,inactive
Unc-76,2,108,126,inactive
Bx42,1,120,92.3,inactive
Slu7,1,86.5,92.8,active
CG12347,1,69,148,active
CG17292,1,87,202,inactive
CG14327,1,99.1,116,inactive
CG32425,1,98.1,140,inactive
CG32425,2,155,121,inactive
Or46a + asRNA:CR43467,1,99.4,110,inactive
Or46a + asRNA:CR43467,2,82.3,87,inactive
Or46a + asRNA:CR43467,3,115,93.6,inactive
Cpsf100,1,84.6,110,inactive
Alg1,1,130,279,inactive
CG32971,1,148,82.1,inactive
Rdl,1,99.1,113,inactive
Pef,1,168,126,inactive
CAH14,1,178,91.5,inactive
CAH14,2,91,198,inactive
unc-119,1,228,130,inactive
loqs,1,122,84.9,inactive
Eip75B,1,138,117,inactive
Eip75B,2,88.5,141,inactive
CG30049,1,114,95.2,inactive
CG5377,1,145,148,inactive
Phf7,1,159,135,inactive
or,1,134,242,inactive
Cpr56F,1,127,142,inactive

Individual results from the entries so far:
Under “Outcome”, Eip75B #1 has inactive
Value for CG43777 + CG43776 + CG43775 in “calcium signal, replicate 1”: 111
Under “calcium signal, replicate 1”, CG32425 #1 has 98.1
